Experimental data published in PubChem BioAssay AID2685 (National Center for Advancing Translational Sciences (NCATS), 2010).
This is one part of the list. Shown are side measurements of this screen, not its main read-out; they come without a call. Compounds called inactive in the main read-out are mostly missing here. Words in brackets tell the shape of the fitted curve; partial curves, single points and poor fits give uncertain potencies.

Assay: qHTS Assay for Lipid Storage Modulators in Drosophila S3 Cells;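 for cell number change: cells counted by Cell Tracker Red CMTPX staining in the red channel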
Settings: BODIPY lipid droplet fluorescence, 18-24 h; for cell number change: measured here: cell count max response, cells fed with added oleic acid
Summary of the method: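 Drosophila S3 cells got compounds at several concentrations plus oleic acid (400 uM solution). Laser-scanning cytometry with 488 nm excitation read lipid droplets at 500-530 nm and cells at 575-640 nm. Percent activity was relative to 20 uM Triacsin C.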

[1] = measured here: cell number channel AC50, cells fed with added oleic acid
[2] = measured here: lipid fluorescence (Fed channel) AC50, cells fed with added oleic acid

Row | SMILES | cell number change | AC50 [1] | AC50 [2]
1 | O=C(c1cc(COc2ccc(F)cc2Cl)on1)N1CCN(C2CCCC2)CC1 | 15.5% | 3.26 µM [rising, partial curve, poor fit] | 2.91 µM [rising, partial curve, poor fit]
2 | O=C(CSc1ncccc1C(=O)O)Nc1ccc2c(c1)OCCO2 | -0.427% | – | 32.6 µM [rising, single point]
3 | Cc1ccc(S(=O)(=O)N2CCCCC2)cc1NC(=O)c1ccc2ccccc2n1 | – | – | 3.66 µM [falling, partial curve]
4 | O=c1c2ccccc2c(C=Nc2ccccc2O)c(O)n1-c1nccs1 | 39.8% | 10.3 µM [rising, partial curve, poor fit] | 29.1 µM [falling, single point]
5 | COc1ccc(C)cc1S(=O)(=O)NC(C)C(=O)Nc1ccc2c(c1)OCO2 (stereo not drawn) | -6.41% | – | –
6 | O=C(Nc1nc2ccc(F)cc2s1)c1ccccn1 | -10.1% | – | 3.26 µM [rising, full curve]
7 | CCS(=O)(=O)N1CCCC(C(=O)NCc2ccccc2Cl)C1 (stereo not drawn) | – | – | 0.58 µM [falling, single point]
8 | Cc1ccc(C(=O)NCCNC(=O)COc2ccccc2Cl)cn1 | 18.9% | – | 0.206 µM [rising, single point]
9 | COc1ccc(N2CC(C(=O)N[C@H](C(=O)NC(C)c3ccccc3)C(C)C)CC2=O)cc1 (stereo partly drawn) | – | – | 0.092 µM [rising, full curve, poor fit]
10 | CC12C(=O)N(n3cnnc3)C(=O)C1C1C=CC2C1 (stereo not drawn) | – | – | 5.8 µM [falling, partial curve, poor fit]
11 | CCN(c1ccccc1)S(=O)(=O)c1ccc(N2CCN(c3ccccc3O)CC2)nc1 | -31.6% | 29.1 µM [falling, single point] | 11.6 µM [falling, partial curve]
12 | CC(=O)NC1=NN(C(C)=O)C(c2ccc(C(C)C)cc2)S1 (stereo not drawn) | 15.9% | – | 5.8 µM [rising, partial curve]
13 | CC(C)c1ccccc1NC(=O)Nc1ccc2c(c1)OCO2 | 8.58% | – | 25.9 µM [rising, single point]
14 | Nc1ccc2c(C(F)(F)F)cc(=O)oc2c1 | -8.55% | – | 0.146 µM [falling, full curve, poor fit]
15 | COC(=O)Cc1ccc(NC(=O)c2ccccc2Cl)cc1 | 18.8% | – | 0.103 µM [rising, full curve, poor fit]
16 | Cc1cc2oc(=O)cc(CN3CCOCC3)c2cc1C(C)C | 0.427% | – | 0.651 µM [falling, single point]
17 | Cc1cccc(NC(=O)Cn2c(=O)n(Cc3ccco3)c(=N)c3c4c(sc32)COC(C)(C)C4)c1 | 93.1% | 29.1 µM [rising, single point] | 29.1 µM [rising, partial curve]
18 | Cc1cccc(C)c1N(CC(=O)Nc1cccc(N(C)S(C)(=O)=O)c1)S(C)(=O)=O | -6.36% | – | 29.1 µM [rising, single point]
19 | Cc1cccc(N(CC(=O)N/N=C/c2ccc(OCC(=O)NCc3ccco3)cc2)S(C)(=O)=O)c1C | 58.6% | 4.11 µM [rising, partial curve] | 1.64 µM [rising, partial curve]
20 | O=c1[nH]c(CN2CCN(c3ccccc3)CC2)nc2scc(-c3ccccc3)c12 | 11.8% | – | –

Row | SMILES | cell number change | AC50 [1] | AC50 [2]
21 | C=CCOC(=O)C1=C(C)N=C2SCCC(=O)N2C1c1ccc(OC(=O)c2ccco2)cc1 (stereo not drawn) | -10.5% | – | –
22 | Cc1cnc(NC(=O)Cc2ccccc2F)s1 | -3.78% | – | 29.1 µM [rising, single point]
23 | Cc1cc(C2C(C#N)=C(N)SC(N)=C2C#N)c(C)s1 | – | 6.51 µM [rising, single point] | 6.51 µM [rising, single point]
24 | c1ccc(CN2CCOCC2)cc1 | -17% | – | –
25 | C#CCOCCOCCOCCNc1nc(N2CCN(C(=O)CCCCCCCCCCNC(=O)[C@@H](CCSC)n3cc(CCO)nn3)CC2)nc(N2CCN(C(=O)CCCCCCCCCCNC(=O)[C@H](CCC(=O)O)n3cc(CCCCCN)nn3)CC2)n1 | 2.44% | – | 6.51 µM [rising, single point]
26 | CCOC(=O)C(C)Sc1nnc2c3ccccc3n(C)c2n1 (stereo not drawn) | -15% | – | 29.1 µM [falling, partial curve, poor fit]
27 | COc1cc(CCC(=O)OCC(=O)NCC2CCCCC2)cc(OC)c1OC | – | – | 0.82 µM [rising, full curve]
28 | CCc1ccc(N/C(=N/c2nc(C)cc(C)n2)NC(C)=O)cc1 | -0.734% | – | 0.092 µM [rising, full curve, poor fit]
29 | C=CCOc1ccccc1/C=C/C(=O)O | – | – | 29.1 µM [rising, single point]
30 | CCOC(=O)[C@@H]1[C@H]2COc3ccccc3[C@H]2N2C(=O)N(c3ccc(C)cc3)C(=O)[C@]12C | -9.58% | – | –
31 | CCCCN(CCCC)S(=O)(=O)c1ccc(NC(=O)Cc2cccs2)cc1 | -9.8% | – | 0.146 µM [rising, full curve, poor fit]
32 | Cc1ccc(OCC(=O)O/N=C(\N)c2ccccn2)cc1C | -1.92% | – | –
33 | Cc1ccc(N(CC(=O)N2CCCC2)S(C)(=O)=O)c(C)c1 | 12.2% | – | 0.517 µM [falling, single point]
34 | Cc1sc2ncnc(NCCc3ccc(S(N)(=O)=O)cc3)c2c1C | -70.3% | 18.4 µM [falling, partial curve] | 1.64 µM [rising, single point]
35 | O=c1c(C=NCCCn2ccnc2)c(-c2ccccc2)[nH]n1-c1nc2ccccc2s1 | – | 6.51 µM [rising, single point] | 6.51 µM [rising, single point]
36 | COC(=O)c1ccccc1NC(=O)CNc1cc(OC)c(OC)cc1C | -13.1% | – | 14.6 µM [falling, single point]
37 | Nc1ccc(C(=O)OCC(=O)N2c3ccccc3Sc3ccccc32)cc1[N+](=O)[O-] | 15.8% | – | 2.06 µM [rising, partial curve]
38 | Nc1ccc2sc(N)nc2c1 | 16.9% | – | 29.1 µM [rising, single point]
39 | NC(=O)N=Nc1c(O)[nH]c2ccc([N+](=O)[O-])cc12 | -50.6% | 29.1 µM [falling, single point] | 29.1 µM [falling, single point]
40 | CC(C)NC(=O)c1ccc2c(c1)N(CC(=O)N1CCCCC1)C(=O)C(C)(C)O2 | -1.25% | – | –

Row | SMILES | cell number change | AC50 [1] | AC50 [2]
41 | CCC1=Nc2cc(C(=O)NCCCN3CCN(C)CC3)ccc2Sc2ccccc21 | 38.2% | – | –
42 | COc1ccc(NC(=O)c2c(C)nn(-c3ccccc3)c2Cl)cc1 | 5.11% | 0.116 µM [rising, full curve, poor fit] | 1.84 µM [rising, full curve]
43 | CCCc1cc(=O)oc2cc(OCC(=O)NCCc3c[nH]c4ccccc34)ccc12 | 23.8% | – | 16.4 µM [falling, partial curve, poor fit]
44 | CC(CCc1ccccc1)NC(=O)c1ccccc1F (stereo not drawn) | -24.7% | – | 0.58 µM [rising, single point]
45 | Cc1cccc(NC(=O)c2oc3c(c2C)C(=O)CC(C)(C)C3)n1 | 200% | 23.1 µM [rising, single point] | 6.51 µM [rising, single point]
46 | CC(=O)Nc1cccc(C(=O)OCC(=O)N2CCC(c3ccccc3)=N2)c1 | – | 2.31 µM [rising, partial curve, poor fit] | –
47 | Cc1nc2ccc(NC(=O)[C@@H](NC(=O)c3c(F)cccc3F)C(C)C)cc2s1 | -8.54% | – | 29.1 µM [falling, single point]
48 | Cc1cc(-c2nnc(-c3cc4ccccc4oc3=O)o2)c(C)n1-c1ccccc1 | -3.27% | – | 0.461 µM [falling, single point]
49 | Cc1cc(C)nc(SCC(=O)c2ccc3c(c2)OCCO3)n1 | – | 0.366 µM [rising, partial curve, poor fit] | –
50 | COc1ccc(C(=O)/C=C/c2cccs2)c(OC(=O)c2cccc([N+](=O)[O-])c2)c1 | -20% | – | 0.731 µM [falling, single point]
51 | COc1ccc(N(CC(=O)O)S(C)(=O)=O)cc1OC | -4.25% | – | 1.03 µM [falling, full curve]
52 | C/[N+]([O-])=C\C1C(=O)CCCC1=O | -26.9% | 0.259 µM [falling, full curve, poor fit] | 2.91 µM [falling, full curve]
53 | O=C(Nc1nc2ccccc2n1CCOc1ccccc1)c1ccco1 | -30.5% | 5.17 µM [falling, partial curve] | 9.2 µM [falling, partial curve, poor fit]
54 | COc1ccc(-c2csc(NC(=O)C3CC(=O)N(c4ccc5c(c4)OCCO5)C3)n2)cc1 (stereo not drawn) | -20.9% | – | 29.1 µM [falling, partial curve]
55 | CN=C1SC(CC(=O)Nc2ccccc2F)C(=O)N1C (stereo not drawn) | -76.3% | 0.231 µM [falling, full curve] | –
56 | CCOC(=O)c1cn2nc(SCc3ccccc3)nc2nc1C | -9.71% | – | 29.1 µM [falling, single point]
57 | CCCC(=O)C1=C(O)C(C(=O)OC)C(C)(C)CC1=NCCc1ccccc1 (stereo not drawn) | 2.75% | – | –
58 | CCC(C(=O)NNC(=O)c1cnccn1)c1ccccc1 (stereo not drawn) | -8.83% | 6.51 µM [rising, single point] | 0.0058 µM [falling, full curve, poor fit]
59 | Cc1cccc(-c2noc(CCCC(=O)NCC3CCCO3)n2)c1 (stereo not drawn) | -5.22% | – | 29.1 µM [falling, single point]

From no. 16 to 18, copied from above:
Row | SMILES | cell number change | AC50 [1] | AC50 [2]
16 | Cc1cc2oc(=O)cc(CN3CCOCC3)c2cc1C(C)C | 0.427% | – | 0.651 µM [falling, single point]
17 | Cc1cccc(NC(=O)Cn2c(=O)n(Cc3ccco3)c(=N)c3c4c(sc32)COC(C)(C)C4)c1 | 93.1% | 29.1 µM [rising, single point] | 29.1 µM [rising, partial curve]
18 | Cc1cccc(C)c1N(CC(=O)Nc1cccc(N(C)S(C)(=O)=O)c1)S(C)(=O)=O | -6.36% | – | 29.1 µM [rising, single point]
